# Values of other authors, collected in US12702697B2, “Compositions and methods for treatment of headache disorders and neuropathic pain” (Washington University, priority 2019, dated 2026).
# At least one compound was matched to its structure with a doubt left.
# Tested on: Treg cells
# Settings: literature (Battagalia et al. 2011; R. Mao et al. 2013); cited from earlier work
smiles,measurement,value
"CO[C@H]1C[C@@H]2CC[C@@H](C)[C@@](O)(O2)C(=O)C(=O)N2CCCC[C@H]2C(=O)O[C@H]([C@H](C)C[C@@H]2CC[C@@H](O)[C@H](OC)C2)CC(=O)[C@H](C)/C=C(\C)[C@@H](O)[C@@H](OC)C(=O)[C@H](C)C[C@H](C)/C=C/C=C/C=C/1C [Rapamycin, rapamycin]",expansion of regulatory T cells,selectively expand regulatory T cells
